Laboratory results: PubChem BioAssay AID1259425 (University of Nebraska Medical Center, 2018)
The deposit covers about 14,000 reagents; shown is a random part of them. Reagent sequences are not shown. Not stated in the record: the time to read-out.

Purpose: 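Find knockdowns that reproduce the gene expression pattern seen when KSR1 is lost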 (primary screen)
Cells: HCT116 human colon cancer cells
Reagents: siRNA pool against human genes, 50 nM siRNA
Read-out: 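After 50 nM siRNA pool, branched-DNA assay measures six marker transcripts per well, minus blank, normalised to the geometric mean of two housekeeping transcripts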
Direction: BNIP3L mRNA: higher = more BNIP3L transcript after knockdown; NDRG1 mRNA: higher = more NDRG1 transcript after knockdown; BNIP3 mRNA: higher = more BNIP3 transcript after knockdown; ALDOC mRNA: higher = more ALDOC transcript after knockdown; ACSL5 mRNA: higher = more ACSL5 transcript after knockdown

no.	target gene	PubChem SID	BNIP3L mRNA, set 1	NDRG1 mRNA, set 1	BNIP3 mRNA, set 1	ALDOC mRNA, set 1	ACSL5 mRNA, set 1
1	KIF16B	SID364002990	0.0545	0.0728	0.228	0.0204	0.249
2	TLE1	SID363996014	0.111	0.335	0.317	0.019	0.131
3	DPP7	SID363998486	0.109	0.128	0.175	0.00278	0.0551
4	LINS1	SID364000824	0.115	0.193	0.296	0.0176	0.131
5	TRIM17	SID363999873	0.196	0.45	0.49	0.0262	0.116
6	GPR171	SID363998423	0.306	0.511	0.821	0.0926	0.258
7	SLC12A4	SID363996009	0.208	0.201	0.418	0.0577	0.231
8	CECR2	SID364005495	0.0879	0.706	0.392	0.0255	0.206
9	FAM120C	SID364000579	0.147	0.173	0.382	0.0167	0.14
10	CAPN11	SID363997789	0.0793	0.111	0.236	0.0278	0.125
11	SLC25A18	SID364003661	0.126	0.157	0.403	0.0812	0.225
12	COX6A1	SID363995358	0.0686	0.161	0.283	0.016	0.16
13	SMS	SID363995565	0.0807	0.112	0.257	0.0297	0.0475
14	SYNE2	SID363999349	0.11	0.225	0.146	0.0249	0.16
15	CTPS2	SID364001460	0.0624	0.23	0.223	0.00866	0.208
16	DCAF10	SID364002811	0.0807	0.0682	0.366	0.0325	0.172
17	HPGDS	SID363998897	0.11	0.362	0.272	0.0266	0.189
18	LIF	SID363993506	0.107	0.338	0.316	0.0419	0.181
19	MRPS18C	SID363999840	0.347	0.691	0.553	0.035	0.199
20	RCL1	SID363996653	0.136	0.0782	0.186	0.032	0.13
21	SFRP2	SID364005227	0.162	0.875	0.298	0.0135	0.511
22	AFF1	SID363996803	0.139	0.219	0.319	0.0533	0.358
23	ZNF12	SID363999993	0.102	0.116	0.408	0.00961	0.308
24	MICA	SID363991580	0.108	0.0852	0.348	0.00944	0.327
25	YY1	SID363994512	0.178	0.178	0.625	0.0158	0.28
26	NR1I2	SID363994948	0.0574	0.285	0.383	0.016	0.215
27	PUDP	SID363998030	0.0427	0.0942	0.24	0.0215	0.0982
28	CALU	SID363992504	0.0471	0.705	0.545	0.0388	0.0972
29	PSMD2	SID363993965	0.144	0.179	0.562	0.0222	0.131
30	ZNF221	SID363998467	0.143	0.675	0.326	0.066	0.158
31	ADCY4	SID364004607	0.053	0.296	0.222	0.0282	0.111
32	RAG1	SID363991779	0.128	0.365	0.238	0.0193	0.281
33	PLXDC2	SID364004192	0.139	0.169	0.341	0.0496	0.147
34	VPS33B	SID364001167	0.161	0.25	0.249	0.0975	0.226
35	CDK7	SID363993018	0.136	0.511	0.551	0.00895	0.321
36	BRI3	SID363999454	0.188	0.347	0.398	0.0337	0.216
37	ZBED5	SID364002096	0.0758	0.363	0.404	0.0249	0.181
38	PCDHB15	SID364001262	0.113	0.273	0.291	0.0123	0.209
39	HCST	SID363998701	0.0602	0.241	0.389	0.0167	0.277
40	RND1	SID363998882	0.0965	0.0985	0.231	0.0168	0.11
41	PHLDA2	SID363994427	0.156	0.352	0.283	0.0497	0.165
42	OSTF1	SID363998271	0.151	0.269	0.484	0.0252	0.217
43	STARD9	SID364005059	0.145	0.105	0.276	0.0413	0.19
44	GPR12	SID363996206	0.0683	0.193	0.224	0.0285	0.148
45	IFI44L	SID363997586	0.247	0.245	0.446	0.0215	0.172
46	SH2D3C	SID363996391	0.177	0.589	0.527	0.0294	0.48
47	ZNF510	SID364005589	0.11	0.088	0.249	0.0682	0.152
48	PDE8B	SID363994788	0.119	0.201	0.266	0.0353	0.117
49	CSRP1	SID363995088	0.0858	0.16	0.235	0.0161	0.137
50	SLC71A2	SID364004051	0.154	0.228	0.303	0.0318	0.545
51	PREX1	SID364001851	0.121	0.379	0.358	0.019	0.148
52	TM7SF3	SID364000190	0.143	0.385	0.492	0.0329	0.31
53	ATIC	SID363995054	0.0493	0.109	0.285	0.0198	0.175
54	PLEKHJ1	SID364000737	0.11	0.152	0.281	0.0202	0.292
55	HMCN1	SID364003707	0.165	1.67	0.201	0.0899	0.392
56	FGF22	SID364001741	0.143	0.992	0.254	0.018	0.301
57	EEF1B2	SID363993171	0.0847	0.115	0.197	0.0162	0.187
58	NFYB	SID363996995	0.0885	0.555	0.246	0.00239	0.248
59	FBXO7	SID363998117	0.075	0.213	0.211	0.0306	0.173
60	ZNF248	SID364001972	0.173	0.118	0.282	0.0385	0.172
61	GGA1	SID363992291	0.107	0.678	0.55	0.0633	0.169
62	POLR3D	SID363992943	0.105	0.0325	0.358	0.0136	0.0338
63	SLC2A1	SID363997313	0.0839	0.152	0.34	0.0174	0.169
